Results from patent US20220233640A1, “GALANIN- AND GALANIN RECEPTOR BASED COMPOUNDS FOR THE TREATMENT OF LIVER FIBROSIS” (United State Govermment as represented by the Department of …, priority 2019, published 2022).
At least one peptide structure holds a part that was inferred or is arguable (an end, a ring closure or a residue). Ends that are not written are not given here.

How the values were obtained:
FVBN and Mdr2KO mice [1] = assay: Liver enzyme assessment in serum (ALT, AST, ALKP; IDEXX Catalyst One); format: in vivo, mouse; settings: for ALT, AST, and ALPK: Mdr2KO mice, vs vehicle-treated Mdr2KO mice; for ALKP / ALT / AST: serum, N=3
FVBN and Mdr2KO mice [2] = assay: Gal concentration in serum by enzyme immunoassay; format: in vivo, mouse; settings: vs vehicle
FVBN and Mdr2KO mice [3] = assay: Biliary hyperplasia / cholangiocyte proliferation in liver (IBDM by CK19 IHC, CK19 and PCNA mRNA by RT-qPCR, PCNA IHC); format: in vivo, mouse; settings: vs vehicle; for CK19 and PCNA mRNA expression: liver
FVBN and Mdr2KO mice [4] = assay: Liver fibrosis markers in liver (aSMA, Col1A1, MMP2, TIMP1 mRNA; desmin and aSMA IHC; Sirius Red); format: in vivo, mouse; settings: for aSMA, Col1A1, MMP2, and TIMP1 mRNAs: vs vehicle or mismatch control
LX-2 cells = assay: Activation of LX-2 cells (αSMA, Col1A1 by RT-qPCR and IF), directly or via cholangiocyte-conditioned media; format: cell-based, human

Substance | ALT, AST, and ALPK (FVBN and Mdr2KO mice [1]) | ALKP (FVBN and Mdr2KO mice [1]; Female FVBN mice) [U/L] | ALT (FVBN and Mdr2KO mice [1]; Female FVBN mice) [U/L] | AST (FVBN and Mdr2KO mice [1]; Female FVBN mice) [U/L] | ALKP (FVBN and Mdr2KO mice [1]; Female Mdr2KO mice) [U/L] | ALT (FVBN and Mdr2KO mice [1]; Female Mdr2KO mice) [U/L] | AST (FVBN and Mdr2KO mice [1]; Female Mdr2KO mice) [U/L] | ALKP (FVBN and Mdr2KO mice [1]; Male FVBN mice) [U/L] | ALT (FVBN and Mdr2KO mice [1]; Male FVBN mice) [U/L] | AST (FVBN and Mdr2KO mice [1]; Male FVBN mice) [U/L] | ALKP (FVBN and Mdr2KO mice [1]; Male Mdr2KO mice) [U/L] | ALT (FVBN and Mdr2KO mice [1]; Male Mdr2KO mice) [U/L] | AST (FVBN and Mdr2KO mice [1]; Male Mdr2KO mice) [U/L] | serum concentration of Gal (FVBN and Mdr2KO mice [2]) | CK19 and PCNA mRNA expression (FVBN and Mdr2KO mice [3]) | IBDM / biliary hyperplasia (CK19 IHC) (FVBN and Mdr2KO mice [3]) | aSMA, Col1A1, MMP2, and TIMP1 mRNAs (FVBN and Mdr2KO mice [4]) | further results
WTLNSAGYLLGPEHPPPALALA-NH2 [M871] | reduced | 98 ± 3.84 | 270 ± 11.55 | 427 ± 129.81 | 193 ± 18.56 | 953 ± 103.98 | 863 ± 116.67 | 107 ± 12.02 | 242 ± 32.14 | 238 ± 87.62 | 103 ± 3.33 | 370 ± 64.29 | 583 ± 131.32 | modest but significant alleviation | did not affect | no effect on biliary hyperplasia | downregulated | aSMA by IHC and collagen types I and III by Sirius Red staining (FVBN and Mdr2KO mice [4]; vs vehicle): reduce hepatic fibrosis; desmin at protein level (IHC) (FVBN and Mdr2KO mice [4]; vs vehicle): significantly decreased; αSMA and Col1A1 mRNA expression in LX-2 cells (LX-2 cells; cholangiocyte-conditioned media, cholangiocytes stimulated by Gal, GalR2 blocked by M871): not sufficient for further activation of LX-2 cells; αSMA protein expression (IF) in LX-2 cells (LX-2 cells; directly or via media from treated cholangiocytes, M871 tested together with Gal): Gal did not induce αSMA expression in LX-2 cells directly, nor via cholangiocyte-conditioned media
GWTLNSAGYLLGPPPALALA-NH2 [M40] | reduced | 97 ± 3.33 | 163 ± 40.96 | 459 ± 114.89 | 193 ± 69.84 | 983 ± 169.05 | 950 ± 40.41 | 106 ± 6.67 | 373 ± 49.10 | 410 ± 70.95 | 100 ± 0.00 | 633 ± 113.48 | 626 ± 88.07 | modest but significant alleviation | significant downregulation | strong reduction of IBDM | downregulated | protein expression of desmin, aSMA and collagens I and III (FVBN and Mdr2KO mice [4]; vs vehicle or mismatch): significant reduction of hepatic fibrosis; upregulation of αSMA or Col1A1 in LX-2 cells by galanin, M617 or AR-M (LX-2 cells; LX-2 cells treated with M40, or cholangiocytes treated with M40): None of the GalR1 or GalR2 agonists was able to induce upregulation of αSMA or Col1A1
